Results deposited as PubChem BioAssay AID652259 (Drosophila RNAi Screening Center, 2013).
Purpose: 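Genome-wide hunt for genes that control Wingless pathway activity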 (primary screen). System: Drosophila clone 8 imaginal disc epithelial cells. Knock-down reagent: long dsRNA against Drosophila genes. Treatment: pathway stimulated by co-transfected Wingless expression plasmid. Read-out: 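Dual luciferase reads per well after Wingless plasmid stimulation: reporter firefly light and Renilla control light; activity is firefly divided by Renilla, a ratio not deposited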. Direction: firefly reporter light: higher = more Wg reporter light, before normalisation; Renilla control light: higher = more transfected or surviving cells. Active means: 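a knock-down is a candidate when at least two out of four statistical tests show it departing from its plate mean; one test alone signals a weak candidate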. Meaning of the calls: active = candidate regulator (raises or lowers reporter); inactive = not a candidate.
The screen tested about 22,000 reagents; below is a random part of those that have a named target and a result. In the full data, 233 (1.1%) are marked active. 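Light values are raw, unnormalised plate reads; the ratio scores behind the reporter calls were not deposited.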 A plus sign joins genes that one reagent is predicted to hit. Not given: the amount of reagent, the time to read-out, the dose of the treatment.

no.	Gene	dsRNA	reporter change call, replicate 1	firefly reporter light, replicate 1	firefly reporter light, replicate 2	Renilla control light, replicate 1	Renilla control light, replicate 2	Call
1	Shmt	DRSC18264		17076		7953		inactive
2	CG15580	DRSC12266		11245		2567		inactive
3	CG33502 + CG32857 + CG32500	DRSC21038		11419		7224		inactive
4	LRR	DRSC06444		2918	5324	880	2490	inactive
5	Efhc1.1	DRSC20135		15074		6189		inactive
6	dwg	DRSC18766		2349	8226	1136	2145	inactive
7	Pka-R2	DRSC07509		2715	10577	376	3536	inactive
8	karr	DRSC20681		16314		11053		inactive
9	CG3527	DRSC18307		19680		10188		inactive
10	defl	DRSC10300	Wg reporter activity lowered	2322		1698		inactive
11	Rab30	DRSC03137		2704	8372	1021	3373	inactive
12	CG11147	DRSC02129		1729	6003	887	2637	inactive
13	Dys + snoRNA:Me18S-A1374	DRSC16232		7426		3213		inactive
14	asRNA:CR31514 + CG12947	DRSC14575		15876		3191		inactive
15	Vps28	DRSC06168		10620		1811		inactive
16	CG34454	DRSC07864		5266		1952		inactive

5 entries from above, reduced to “Renilla control light, replicate 1”.
Efhc1.1 [DRSC20135]: 6189
dwg [DRSC18766]: 1136
Pka-R2 [DRSC07509]: 376
karr [DRSC20681]: 11053
CG3527 [DRSC18307]: 10188

Next reagents follow:
no.	Gene	dsRNA	reporter change call, replicate 1	firefly reporter light, replicate 1	firefly reporter light, replicate 2	Renilla control light, replicate 1	Renilla control light, replicate 2	Call
17	Mccc2	DRSC04987		3061	6456	536	2074	inactive
18	DIP-zeta	DRSC02203		3216	8194	955	4004	inactive
19	DIP-zeta	DRSC02204		4449	10945	976	4773	inactive
20	DIP-zeta	DRSC02205		2048	7088	682	2753	inactive
21	CG31709	DRSC01081		19152		11574		inactive
22	CG42238	DRSC03180		12185		3040		inactive
23	CG33339	DRSC22917		6.23e5	6.08e5	2.78e5	2.33e5	inactive
24	CG14071	DRSC02374		2819	5218	889	3062	inactive
25	Grx5	DRSC19593		20589		12434		inactive
26	CG1738	DRSC19772		14152		8935		inactive
27	CG8237	DRSC07119		10154		3162		inactive
28	ppk11	DRSC02737		2902	5273	717	2020	inactive
29	asRNA:CR43477 + CG12256	DRSC14484		11488		3233		inactive
